# Experimental data from PubChem BioAssay AID504834 (National Center for Advancing Translational Sciences (NCATS), 2011).
# About 22,000 (6.9%) of roughly 320,000 compounds were called active. Inconclusive means that the source gave no clear call. Such entries were picked first, then a sample of the others. Calls follow the shape of the dose curve; as a rule, active = well fitted inhibition curve with a large enough effect; inconclusive = small, poorly fitted or top-dose-only effect, or another doubt; inactive = no such curve, though single readings can be large or run the other way. Where the call is inconclusive, the potency comes from a doubtful curve fit.
# Experiment: Primary qHTS for delayed death inhibitors of the malarial parasite plastid, 96 hour incubation
# Conditions: P. falciparum luciferase reporter growth; series mostly up to 28.7 µM; activity change, negative = inhibition: at the top concentration
# Method in brief: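 Parasite growth measured via integrated firefly luciferase reporter in P. falciparum. Infected erythrocytes at 2% hematocrit, 0.05% parasitemia final were treated 96 hours at 37 C under 5% CO2, and luminescence was read.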
# % is scaled to controls: 0 for no effect and ±100 for the full control effect; potency is read from the fitted curve at half-maximal effect.
Compound,Potency,"activity change, negative = inhibition"
CCOC(=O)CC1C(=O)NCCN1Cc1ccc(OC)c(OC)c1 (configuration not stated),active: 10.4 µM,–
Cc1ccnc(NC(=O)C2CCN(S(=O)(=O)c3cccc4nonc34)CC2)c1,"inconclusive: 4.15 µM [inhibitor, single point]",–
COc1cc(CN2CCNCC2)cc(OC)c1OC,–,inactive: 121%
COc1ccc(-c2csc(-c3ccc(O)cc3)n2)cc1,–,inactive: 2.92%
COc1ccc2oc(C(=O)NNC(=O)c3ccc(F)cc3)c(C)c2c1,–,inactive: 31.8%
ClCCN1CCN(c2ccnc3cc(Cl)ccc23)CC1,active: 0.828 µM,–
COc1ccc2[nH]c(=O)c(CN(C(=O)c3cccnc3)c3ccc(C)c(C)c3)cc2c1,"inconclusive: 20.8 µM [inhibitor, partial curve, poor fit]",–
O=C(O)c1cc([N+](=O)[O-])ccc1Nc1ccccc1,active: 10.4 µM,–
CC12CN3CC(C)(CN(C1)C31C(=O)N(Cc3ccccc3)c3ccccc31)C2=O (configuration not stated),"inconclusive: 0.0657 µM [inhibitor, partial curve, poor fit]",–
CC(OC(=O)CC1CC2CCC1C2)C(=O)Nc1cccc(S(=O)(=O)N2CCOCC2)c1 (configuration not stated),"inconclusive: 11.7 µM [inhibitor, single point]",–
Cc1ccc2c(c1)N(C(=O)CCC(=O)N1CCc3ccccc3C1)CCO2,"inconclusive: 0.0657 µM [inhibitor, full curve, poor fit]",–
Cc1noc(C)c1CCC(=O)NC1CCCN(Cc2ccc(CC(C)C)cc2)C1 (configuration not stated),–,inactive: -12.6%
CC(=O)c1ccc(OCC(O)CN2CCN(c3ccccn3)CC2)cc1 (configuration not stated),"inconclusive: 18.5 µM [inhibitor, single point]",–
Cc1ccc(NC(=O)c2cnn(-c3ccccc3)c2NC(=O)c2ccco2)cc1,"inconclusive: 8.28 µM [inhibitor, partial curve, poor fit]",–
Cc1ccn(C)c(=N)c1,–,inactive: -12.6%
NC(=O)COc1ccc2cc(-c3ccccc3)c(=O)oc2c1,–,inactive: 27.1%
CCC(=O)N1CCc2cc(Br)cc(S(=O)(=O)N3CCCCCC3)c21,"inconclusive: 0.0029 µM [inhibitor, full curve, poor fit]",–
COc1cc(C(C)=O)ccc1OC(=O)c1cc2cccc(OC)c2oc1=O,"inconclusive: 11.7 µM [inhibitor, single point]",–
CC1CCC(N2CCN(c3ncccn3)CC2)C1 (configuration not stated),"inconclusive: 18.5 µM [inhibitor, single point]",–
Cc1ccc(C2=C/C(=C/c3cccs3)C(=O)O2)cc1,"inconclusive: 18.5 µM [inhibitor, single point]",–
CC1CS(=O)(=O)CCN1N=Cc1ccc([N+](=O)[O-])o1 (configuration not stated),"inconclusive: 13.1 µM [inhibitor, partial curve, poor fit]",–
Cc1c(CN2CCCCC2)c(O)n(CCCO)c(=O)c1C#N,"inconclusive: 18.5 µM [inhibitor, single point]",–
Cc1nc2ccccn2c1C(=O)OCC#N,–,inactive: 51.3%
O=C(NC(C(=O)c1ccccc1)N1CCCCCC1)c1ccco1 (configuration not stated),"inconclusive: 18.5 µM [inhibitor, partial curve, poor fit]",–

Compound,Potency,"activity change, negative = inhibition"
O=C(O)CCNC(=O)/C(=C/c1ccco1)NC(=O)c1ccco1,"inconclusive: 18.5 µM [inhibitor, single point]",–
CCOc1ccc(NC(=O)C(C)Sc2nnc(C)n2C)cc1 (configuration not stated),active: 13.1 µM,–
CCN1CCN(CCCNC(=O)C2CCN(c3nnc(-n4c(C)ccc4C)s3)CC2)CC1,–,inactive: 59.5%
CNC(=S)N/N=C(\C)c1cccc(C(F)(F)F)c1,"inconclusive: 18.5 µM [inhibitor, single point]",–
O=C(COC(=O)c1cccc(Br)c1)NCCc1ccccc1,–,inactive: 13.2%
NC(=O)[C@@H]1CCCN1Cc1nc(-c2ccccc2)no1,"inconclusive: 13.1 µM [inhibitor, single point]",–
Cc1ccc(CNC(=O)C2CCCN(S(=O)(=O)c3cccc4nonc34)C2)cc1 (configuration not stated),"inconclusive: 10.4 µM [inhibitor, single point]",–
Oc1ccc(Cl)cc1CNCc1ccc(Cl)cc1,active: 5.86 µM,–
O=C1CSC(c2cccc([N+](=O)[O-])c2)N1Cc1ccccc1 (configuration not stated),"inconclusive: 13.1 µM [inhibitor, single point]",–
COc1ccc(N(Cc2cc3cc(OC)ccc3[nH]c2=O)C(=O)C2CCCO2)cc1 (configuration not stated),–,inactive: 42.1%
COCCN1CCN(C(=O)c2cc(COc3cncc(Cl)c3)on2)CC1,–,inactive: -13.4%
c1ccc(-n2cnnc2SCc2cn3cccnc3n2)cc1,"inconclusive: 0.415 µM [inhibitor, partial curve, poor fit]",–
CCCC(=O)Nc1ccc2oc(-c3ccc(OC)c(Br)c3)nc2c1,"inconclusive: 18.5 µM [inhibitor, single point]",–
COc1ccc(C)cc1N(C(=O)c1ccc(F)cc1)c1nc2ccccc2s1,"inconclusive: 0.185 µM [inhibitor, full curve, poor fit]",–
OC(COc1ccccc1)CN(Cc1ccccc1)CC(O)COc1ccccc1 (configuration not stated),"inconclusive: 18.5 µM [inhibitor, single point]",–
Cc1ccccc1OCC(=O)N1CCC2(CC1)CC(=O)c1ccccc1O2,"inconclusive: 18.5 µM [inhibitor, single point]",–
Cc1ccc(Cl)c(OCC(=O)OC(C)C(=O)NC2CC2)c1 (configuration not stated),–,inactive: -1.16%
CC(=O)c1ccc(NC(=O)c2sc3nc(C)c(C)c(C)c3c2N)cc1,–,inactive: -20.8%
COc1cccc(NC(=O)c2nc3nc(C)cc(C(F)F)n3n2)c1,"inconclusive: 18.5 µM [inhibitor, single point]",–
CCOC(=O)N1CCC(N2Cc3cccc(C(=O)NCC4CCN(CC(C)C)C4)c3C2=O)CC1 (configuration not stated),"inconclusive: 10.4 µM [inhibitor, single point]",–
COC(=O)C1=C(c2ccccc2OCc2ccccc2)C[C@@H]2CC[C@H]1N2C(=O)NCc1ccc(C(C)(C)C)cc1,"inconclusive: 11.7 µM [inhibitor, partial curve]",–
Cc1cc(C(=O)CSc2nc(N)cc(=O)[nH]2)ccc1F,"inconclusive: 5.22 µM [inhibitor, partial curve]",–
COc1cccc(NS(=O)(=O)c2ccc(S(=O)(=O)N3CCCC3)cc2)c1,"inconclusive: 18.5 µM [inhibitor, single point]",–
CSCC(C)N1CCC(n2nccc2NC(=O)CCCc2ccccc2)CC1 (configuration not stated),"inconclusive: 0.104 µM [inhibitor, full curve, poor fit]",–

# A different layout for some results above:
Compound | Potency | activity change, negative = inhibition
CC1CS(=O)(=O)CCN1N=Cc1ccc([N+](=O)[O-])o1 (configuration not stated) | inconclusive: 13.1 µM [inhibitor, partial curve, poor fit] | –
Cc1c(CN2CCCCC2)c(O)n(CCCO)c(=O)c1C#N | inconclusive: 18.5 µM [inhibitor, single point] | –
Cc1nc2ccccn2c1C(=O)OCC#N | – | inactive: 51.3%
O=C(NC(C(=O)c1ccccc1)N1CCCCCC1)c1ccco1 (configuration not stated) | inconclusive: 18.5 µM [inhibitor, partial curve, poor fit] | –
O=C(O)CCNC(=O)/C(=C/c1ccco1)NC(=O)c1ccco1 | inconclusive: 18.5 µM [inhibitor, single point] | –
CCOc1ccc(NC(=O)C(C)Sc2nnc(C)n2C)cc1 (configuration not stated) | active: 13.1 µM | –
CCN1CCN(CCCNC(=O)C2CCN(c3nnc(-n4c(C)ccc4C)s3)CC2)CC1 | – | inactive: 59.5%
CNC(=S)N/N=C(\C)c1cccc(C(F)(F)F)c1 | inconclusive: 18.5 µM [inhibitor, single point] | –
O=C(COC(=O)c1cccc(Br)c1)NCCc1ccccc1 | – | inactive: 13.2%
NC(=O)[C@@H]1CCCN1Cc1nc(-c2ccccc2)no1 | inconclusive: 13.1 µM [inhibitor, single point] | –
Cc1ccc(CNC(=O)C2CCCN(S(=O)(=O)c3cccc4nonc34)C2)cc1 (configuration not stated) | inconclusive: 10.4 µM [inhibitor, single point] | –
Oc1ccc(Cl)cc1CNCc1ccc(Cl)cc1 | active: 5.86 µM | –
O=C1CSC(c2cccc([N+](=O)[O-])c2)N1Cc1ccccc1 (configuration not stated) | inconclusive: 13.1 µM [inhibitor, single point] | –
COc1ccc(N(Cc2cc3cc(OC)ccc3[nH]c2=O)C(=O)C2CCCO2)cc1 (configuration not stated) | – | inactive: 42.1%
COCCN1CCN(C(=O)c2cc(COc3cncc(Cl)c3)on2)CC1 | – | inactive: -13.4%
c1ccc(-n2cnnc2SCc2cn3cccnc3n2)cc1 | inconclusive: 0.415 µM [inhibitor, partial curve, poor fit] | –

# More compounds follow.

Compound,Potency,"activity change, negative = inhibition"
Nn1c(Cc2ccccc2)nc2cc(Cl)ccc2c1=O,"inconclusive: 14.7 µM [inhibitor, single point]",–
CCC(C)N(C)C1CCN(C(=S)Nc2cccc(SC)c2)CC1 (configuration not stated),–,inactive: -20.7%
COc1cc(/C=N/NC(=O)c2ccc(O)cc2)ccc1OCC(=O)N1CC(C)OC(C)C1 (configuration not stated),–,inactive: 10.8%
CC(=O)c1sc(NC(=O)C2CCN(C(=O)c3ccccc3C)CC2)nc1-c1ccccc1,–,inactive: -8.71%
O=C(NCc1ccc(Cl)cc1)c1ccc(Cn2cc(C(F)(F)F)ccc2=O)cc1,"inconclusive: 18.5 µM [inhibitor, single point]",–
CCOC(=O)N1CCOCCOCCN(C(=O)OCC)CCOCC1,–,inactive: -0.0487%
O=C(NCC1CCCO1)C1c2ccccc2C(=O)N1C1CCCCCC1 (configuration not stated),"inconclusive: 4.15 µM [inhibitor, partial curve, poor fit]",–
COc1cc(C(=O)NC(C)CCc2ccccc2)cc(OC)c1OC (configuration not stated),"inconclusive: 14.7 µM [inhibitor, partial curve, poor fit]",–
OC(CNCc1ccccc1)(c1ccccc1)c1ccccc1,active: 8.28 µM,–
Cc1ccc(C(=O)O)cc1NC(=O)C1CCCN1S(=O)(=O)c1cccc2nsnc12 (configuration not stated),active: 16.5 µM,–
COCCNC(=O)c1c[nH]c2ccc(S(=O)(=O)N(C)c3ccc(C)c(C)c3)cc2c1=O,"inconclusive: 4.15 µM [inhibitor, partial curve]",–
Cc1ccc(S(=O)(=O)N2CCN(C3CC(=O)N(CCc4ccccc4)C3=O)CC2)cc1C (configuration not stated),"inconclusive: 18.5 µM [inhibitor, single point]",–
O=C(c1cc(C2CC2)nn1-c1ccccc1)N1CCN(c2ncc(C(F)(F)F)cc2Cl)CC1,"inconclusive: 13.1 µM [inhibitor, single point]",–
CC1CCN(C(=O)CSc2nc3ccccc3[nH]2)CC1,–,inactive: 35.2%
CN(CC(=O)Nc1c(Cl)cccc1Cl)C(=O)CNC(=O)c1ccc2ccccc2c1,–,inactive: 21.4%
COc1cc(C(=O)N2CCN(c3ccc(C)cc3C)CC2)cc(OC)c1OC,"inconclusive: 18.5 µM [inhibitor, single point]",–
CC(C)c1cc(CNC(=O)CC2C(=O)NCCN2CC2CCCCC2)on1 (configuration not stated),"inconclusive: 0.208 µM [inhibitor, full curve, poor fit]",–
COc1ccc(NC(=S)N2CCN(S(=O)(=O)c3ccccc3)CC2)cc1,active: 10.4 µM,–
COc1ccc(CCC(=O)NCc2cnn(C)c2)cc1,–,inactive: 36.3%
CCN=C1S/C(=C\c2cc(Br)c(O)c(OC)c2)C(=O)N1CC,"inconclusive: 0.738 µM [inhibitor, full curve, poor fit]",–
O=C(Nc1cccnc1)C1CCCN(c2ncnc3c2nc2n3CCCCC2)C1 (configuration not stated),"inconclusive: 7.38 µM [inhibitor, partial curve]",–
COc1ccc(CCN2CC(C#N)=C3c4cc(OC)c(OC)cc4CCN3C2)cc1OC,"inconclusive: 16.5 µM [inhibitor, partial curve, poor fit]",–
COc1ccc(NC(=O)CNC(=O)c2nn(-c3ccc(OC)cc3OC)c(=O)c3ccccc23)c(OC)c1,active: 3.29 µM,–
CCOC(=O)c1c(C)sc2c1N(C(C)=O)c1cc(Cl)ccc1S2,"inconclusive: 16.5 µM [inhibitor, single point]",–
